Results on 19 compounds are retold here after PubChem BioAssay AID180 (DTP/NCI, 2004).

The structures appear in SMILES notation. The list does not hold the whole screen: it gathers tests that were run many times, whatever their T/C, doses with no T/C, and many T/C values between a quarter and a half above the control. Other doses and runs of a compound stand elsewhere. T/C gives the treated animals as a percentage of the vehicle group. Schedules are NCI's codes, read here as Q, the interval in days (D) or hours (H), X, the number of doses. Some T/C values carry the count of animals alive at the toxicity check (mostly the fifth day); where none is given, no animal had died by that day. Some entries were tested several times; the values are given in rising order. Marks such as (2×) say how often a value occurs here. Some schedules carry Z or #; the key to these is not given. Some entries give survivors of the animals treated and no T/C: the source holds a T/C of zero for them, seemingly a mark for toxic or unscored doses. Survivors were counted at the toxicity check, usually on the fifth day, unless a day is given; later deaths do not show. Starred links: 1 amine or outer side, 2 acyl side, 3 side chain; linkers in the order of their positions; H or OH if unused. Positions of bridges follow the written chain, without caps; N, C: chain ends. Non-standard residues stand in square brackets, D forms with d. Residues, ends and D or L forms follow the SMILES beside them. Chains are numbered I, II in the order given. Actinocin(9to1) = Cc1c2oc3c(C)ccc(C(=O)[*:1])c3nc-2c(C(=O)[*:2])c(N)c1=O; aThr = C[C@H](O)[C@H](N)C(=O)O; NMeV = CN[C@H](C(=O)O)C(C)C; Sar = CNCC(=O)O

The subject of this assay is BDF1 mice, Adenocarcinoma 755 s.c., tumor weight T/C. The experiment in a line: NCI In Vivo Anticancer Drug Screen. Data for tumor model Adenocarcinoma 755 (subcutaneous) in B6D2F1 (BDF1) mice. The note with it: T/C endpoint: mean tumor weight, higher T/C = larger tumour; for T/C: evaluated on day 12. Summed up:
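Values express treated (T) relative to vehicle-dosed control (C) animals, based on survival or tumour size measured after compound treatment of mice bearing a transplanted tumour.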

[1] abbreviates: dose: 1000.0 mg/kg/injection, schedule: Q01DX011 (oral), vehicle: other.
The mark [2] stands for this setting: dose: 1500.0 mg/kg/injection, schedule: Q01DX011 (oral), vehicle: other.
Setting [3] is: dose: 2000.0 mg/kg/injection, schedule: Q01DX011 (oral), vehicle: other.
Where [4] appears, read: dose: 2500.0 mg/kg/injection, schedule: Q01DX011 (oral), vehicle: other.
[5] abbreviates: dose: 200.0 mg/kg/injection, schedule: Q01DX011 (ip), vehicle: saline.

As for `CCCCn1cnc2c(SC(C)C)nc(N)nc21`, the survivor count (dose: 50.0 mg/kg/injection, schedule: Q01DX011 (ip), vehicle: methylcellulose (MC)) was 2 of 10.
`COB1OB(OC)OB(OC)O1`: the T/C is, setting by setting: (dose: 500.0 mg/kg/injection, schedule: Q## X006 (ip), vehicle: other) 143 % of control; (dose: 750.0 mg/kg/injection, schedule: Q01DX011 (sc), vehicle: other) 40 (2×) and 87 % of control; under setting [1], 28, 35, 53 [9 of 10 alive], 88 % of control; (dose: 1000.0 mg/kg/injection, schedule: Q01DX011 (sc), vehicle: other) 33, 34, 40 % of control; under setting [2], 17 [9 of 10 alive], 20 [9 of 10 alive], 49 % of control; under setting [3], 4, 7 [9 of 10 alive], 10, 12, 18 % of control [9 of 10 alive]. In addition, the T/C under setting [4] was 3 [7 of 10 alive], 4, 7 % of control [9 of 10 alive]. For the same compound, the survivor count is 5 of 10 (dose: 800.0 mg/kg/injection, schedule: Q01DX011 (ip), vehicle: other); 6 of 10 under setting [1]; 4 of 10 (dose: 1500.0 mg/kg/injection, schedule: Q01DX011 (ip), vehicle: other); 2 of 10 under setting [2]; 6 of 10 (dose: 1500.0 mg/kg/injection, schedule: Q#A X022 (oral), vehicle: water); 1 of 10 (dose: 1600.0 mg/kg/injection, schedule: Q01DX011 (im), vehicle: other). The survivor count was 0 of 10 under setting [3]; 3 of 10 (dose: 2250.0 mg/kg/injection, schedule: Q02DX006 (ip), vehicle: other); 0 of 10 under setting [4]; 5 of 12 (dose: 2500.0 mg/kg/injection, schedule: Q01DX011 (oral), vehicle: water); 0 of 10 and 4 of 10 (dose: 3000.0 mg/kg/injection, schedule: Q01DX011 (oral), vehicle: other).
With `CC(C)(CBr)C(=O)N1CCN(C(=O)C(C)(C)CBr)CC1`, the survivor count (dose: 28.0 mg/kg/injection, schedule: Q01DX011 (ip), vehicle: methylcellulose (MC)) is 6 of 10; the survivor count (dose: 57.0 mg/kg/injection, schedule: Q01DX011 (ip), vehicle: methylcellulose (MC)) is listed as 2 of 10; the survivor count (dose: 113.0 mg/kg/injection, schedule: Q01DX011 (ip), vehicle: methylcellulose (MC)) was 1 of 10.
As for `CSc1nc(Cl)c2cc[nH]c2n1`, for the setting “dose: 60.0 mg/kg/injection, schedule: Q01DX011 (ip), vehicle: carboxymethylcellulose (CMC)”, the T/C is 127 % of control [9 of 10 alive].
Take `C=CC1OCCN1CC` (stereo not drawn): the T/C (dose: 25.0 mg/kg/injection, schedule: Q01DX011 (ip), vehicle: other) was 129 % of control [9 of 10 alive].
Turning to `COc1ccc(C[C@H](N)C(=O)NC2C(CO)OC(n3cnc4c(N(C)C)ncnc43)C2O)cc1` (stereo partly drawn), the survivor count was 1 of 10 (dose: 136.5 mg/kg/injection, schedule: Q01DX011 (ip), vehicle: carboxymethylcellulose (CMC)) and 4 of 10 (dose: 180.0 mg/kg/injection, schedule: Q01DX011 (ip), vehicle: carboxymethylcellulose (CMC)).
In the case of `COc1cc(-c2ccc(Nc3ccccc3C(=O)O)c(OC)c2)ccc1Nc1ccccc1C(=O)O`, the survivor count under setting [5] was 0 of 10.
As for `O=c1[nH]c(=O)c2[nH]c(N=Nc3ccc(N(CCCl)CCCl)cc3)nc2[nH]1`, the survivor count under setting [5] is reported as 2 of 10.
Consider `CC1CN1C(=O)c1cc(C(=O)N2CC2C)cc(C(=O)N2CC2C)c1` (stereo not drawn), for which the survivor count is, setting by setting: (dose: 15.0 mg/kg/injection, schedule: Q01DX011 (ip), vehicle: methylcellulose (MC)) 6 of 10; (dose: 60.0 mg/kg/injection, schedule: Q01DX011 (ip), vehicle: methylcellulose (MC)) 1 of 10 and 3 of 10; (dose: 120.0 mg/kg/injection, schedule: Q01DX011 (ip), vehicle: methylcellulose (MC)) 5 of 10.
Take `C[C@]12CCC(=O)C=C1CC[C@@H]1[C@@H]2[C@@H](O)C[C@@]2(C)[C@H]1CC[C@]2(O)C(=O)COC(=O)COCC(=O)O`: where the note is “dose: 400.0 mg/kg/injection, schedule: Q01DX011 (ip), vehicle: steroid suspending solution”, the survivor count was 6 of 12.
As to `Cc1c2oc3c(C)ccc(C(=O)N[C@@H]4C(=O)N[C@H](C(C)C)C(=O)N5CCC[C@H]5C(=O)N(C)CC(=O)N(C)[C@@H](C(C)C)C(=O)O[C@H]4C)c3nc-2c(C(=O)N[C@@H]2C(=O)N[C@H](C(C)C)C(=O)N3CCC[C@H]3C(=O)N(C)CC(=O)N(C)[C@@H](C(C)C)C(=O)O[C@H]2C)c(N)c1=O` (I: [aThr][dV]P[Sar][NMeV] / II: [aThr][dV]P[Sar][NMeV]; ester I:1-I:C, II:1-II:C; linker I:N-II:N via Actinocin(9to1)), the T/C (dose: 0.01 mg/kg/injection, schedule: Q01DX011 (ip), vehicle: carboxymethylcellulose (CMC)) was 125 and 131 % of control. In addition, the survivor count is recorded as 1 of 10 (dose: 0.05 mg/kg/injection, schedule: Q01DX011 (ip), vehicle: carboxymethylcellulose (CMC)); 0 of 10 (dose: 0.05 mg/kg/injection, schedule: Q01DX011 (ip), vehicle: saline); 4 of 10 (dose: 80.0 micrograms/kg/injection, schedule: Q01DX011 (ip), vehicle: carboxymethylcellulose (CMC)); 2 of 10 (dose: 95.0 micrograms/kg/injection, schedule: Q01DX011 (ip), vehicle: carboxymethylcellulose (CMC)).
For `CCc1c(Cl)nc(N)nc1Nc1ccccc1Br`, the T/C (dose: 125.0 mg/kg/injection, schedule: Q01DX011 (ip), vehicle: methylcellulose (MC)) is 125 % of control [7 of 10 alive].
Regarding `c1ccc(CNc2ncnc3[nH]ncc23)cc1`, the survivor count (dose: 32.0 mg/kg/injection, schedule: Q01DX011 (ip), vehicle: carboxymethylcellulose (CMC)) is reported as 3 of 10; the survivor count (dose: 62.5 mg/kg/injection, schedule: Q01DX011 (ip), vehicle: carboxymethylcellulose (CMC)) is reported as 0 of 10; the survivor count (dose: 125.0 mg/kg/injection, schedule: Q01DX011 (ip), vehicle: carboxymethylcellulose (CMC)) is 0 of 10; the survivor count (dose: 250.0 mg/kg/injection, schedule: Q01DX011 (ip), vehicle: carboxymethylcellulose (CMC)) is 0 of 10.
With `Nc1nc(SCc2ccc(F)cc2)c2ncn(C3OC(CO)C(O)C3O)c2n1` (stereo not drawn), the T/C is, setting by setting: (dose: 0.7 mg/kg/injection, schedule: Q01DX011 (ip), vehicle: methylcellulose (MC)) 147 % of control; (dose: 1.5 mg/kg/injection, schedule: Q01DX011 (ip), vehicle: methylcellulose (MC)) 125 % of control. Besides, the survivor count (dose: 3.1 mg/kg/injection, schedule: Q01DX011 (ip), vehicle: methylcellulose (MC)) was 6 of 10.
For the compound `Cc1c2ccccc2c(C)c2c1ccc1ccccc12`, the survivor count (dose: 76.0 mg/kg/injection, schedule: Q01DX011 (ip), vehicle: carboxymethylcellulose (CMC)) was 4 of 10.
For the compound `Nc1ncnc2c1cnn2CCCl`, the survivor count (dose: 16.0 mg/kg/injection, schedule: Q01DX011 (ip), vehicle: carboxymethylcellulose (CMC)) is 0 of 10; the survivor count (dose: 50.0 mg/kg/injection, schedule: Q01DX011 (ip), vehicle: saline) is given as 0 of 10; the survivor count (dose: 100.0 mg/kg/injection, schedule: Q01DX011 (ip), vehicle: saline) is on record as 0 of 10.
For the compound `NC(=O)c1ccc(NC(=O)CCC(=O)Nc2ccc(C(N)=O)cn2)nc1`, the survivor count reads like this: (dose: 10.0 mg/kg/injection, schedule: Q01DX011 (ip), vehicle: carboxymethylcellulose (CMC)) 0 of 10; (dose: 20.0 mg/kg/injection, schedule: Q01DX011 (ip), vehicle: carboxymethylcellulose (CMC)) 0 of 10.
As to `CS(=O)(=O)OCCC(=O)NCNC(=O)CCOS(C)(=O)=O`, where the note is “dose: 6.0 mg/kg/injection, schedule: Q01DX011 (ip), vehicle: methylcellulose (MC)”, the T/C was 127 % of control.
On to `CC(Sc1nc(N)nc2nc[nH]c12)C(=O)O` (stereo not drawn), for which the survivor count (dose: 600.0 mg/kg/injection, schedule: Q01DX011 (ip), vehicle: saline) is 6 of 10.
